Source: PubChem BioAssay AID686938 (Drosophila RNAi Screening Center, 2013)

Purpose: 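Looking for CRAC channel components and the factors controlling them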 (primary screen)
Cells: Drosophila S2R+ cells
Knock-down reagent: long dsRNA against Drosophila genes, about 0.25 µg dsRNA per well, roughly 10,000 cells
Time to read-out: 5 days of knock-down before the calcium assay
Treatment: thapsigargin (SERCA pump blocker) to empty calcium stores; entry signal taken 4 min after adding it
Measured: 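Per-well fluo-4 fluorescence in two replicates, unnormalised, measured in resting cells and 4 min after store depletion by the SERCA blocker thapsigargin; ratio of the two present in few wells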
Direction: calcium entry signal: higher = stronger calcium signal after store depletion; resting calcium signal: higher = higher resting calcium signal
Units: calcium entry signal in fluorescence units; resting calcium signal in fluorescence units
Hit rule: 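Hit if the duplicate-averaged plate z-score for entry over resting signal is under −3; wells with weak total dye signal (Fmax z < −2) or more than 5 off-targets removed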
Calls: active = strongly reduced calcium entry; inactive = no strong reduction
The deposit covers about 23,000 reagents; this is an unselected part of those with a known target gene and a result. In the full data, 75 (0.33%) got an active call. 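Raw plate signals without normalisation; calls rest on plate z-scores that were not deposited; ratio present for only 364 wells.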 Entries without a mark were called inactive. Not given: the dose of the treatment.

blot (bloated tubules) [DRSC09485] gave calcium entry signal, replicate 1 = 2.48e7; calcium entry signal, replicate 2 = 3.21e7; resting calcium signal, replicate 1 = 1.22e7; resting calcium signal, replicate 2 = 1.57e7.
With knock-down of blot (bloated tubules) [DRSC11328], the record shows calcium entry signal, replicate 1 = 3.93e7; calcium entry signal, replicate 2 = 4.60e7; resting calcium signal, replicate 1 = 1.83e7; resting calcium signal, replicate 2 = 3.06e7.
With knock-down of mRpL1 (mitochondrial ribosomal protein L1) [DRSC16251], the record shows calcium entry signal, replicate 1 = 5.43e7; calcium entry signal, replicate 2 = 4.85e7; resting calcium signal, replicate 1 = 2.33e7; resting calcium signal, replicate 2 = 1.82e7.
Depletion of galene [DRSC08640] gave: calcium entry signal, replicate 1 = 3.01e7; calcium entry signal, replicate 2 = 4.19e7; resting calcium signal, replicate 1 = 1.58e7; resting calcium signal, replicate 2 = 1.89e7.
Depletion of galene [DRSC08641] gave: calcium entry signal, replicate 1 = 2.98e7; calcium entry signal, replicate 2 = 4.36e7; resting calcium signal, replicate 1 = 1.50e7; resting calcium signal, replicate 2 = 2.00e7.
lili (lilipod) [DRSC14143] scored calcium entry signal, replicate 1 = 4.16e7; calcium entry signal, replicate 2 = 4.13e7; resting calcium signal, replicate 1 = 1.92e7; resting calcium signal, replicate 2 = 1.83e7.
Silencing of CG18540 [DRSC06767] gave: calcium entry signal, replicate 1 = 4.98e7; calcium entry signal, replicate 2 = 6.48e7; resting calcium signal, replicate 1 = 2.08e7; resting calcium signal, replicate 2 = 2.82e7.
ITP (Ion transport peptide) [DRSC04222] scored calcium entry signal, replicate 1 = 4.84e7; calcium entry signal, replicate 2 = 4.52e7; resting calcium signal, replicate 1 = 2.37e7; resting calcium signal, replicate 2 = 2.12e7.
Or35a (Odorant receptor 35a) [DRSC03389] scored calcium entry signal, replicate 1 = 5.07e7; calcium entry signal, replicate 2 = 3.58e7; resting calcium signal, replicate 1 = 2.16e7; resting calcium signal, replicate 2 = 1.74e7.
Against Arl8 (ADP ribosylation factor-like 8) [DRSC16334], the values are calcium entry signal, replicate 1 = 5.08e7; calcium entry signal, replicate 2 = 3.87e7; resting calcium signal, replicate 1 = 2.44e7; resting calcium signal, replicate 2 = 2.00e7.
After knock-down of Gr22d (Gustatory receptor 22d) [DRSC21653] the results were calcium entry signal, replicate 1 = 3.94e7; calcium entry signal, replicate 2 = 3.72e7; resting calcium signal, replicate 1 = 2.35e7; resting calcium signal, replicate 2 = 1.82e7.
Against RtGEF (Rho-type guanine nucleotide exchange factor) [DRSC03604], the entry reads calcium entry signal, replicate 1 = 3.01e7; calcium entry signal, replicate 2 = 4.08e7; resting calcium signal, replicate 1 = 1.52e7; resting calcium signal, replicate 2 = 1.54e7.
For RtGEF (Rho-type guanine nucleotide exchange factor) [DRSC22207], the entry reads calcium entry signal, replicate 1 = 3.76e7; calcium entry signal, replicate 2 = 5.65e7; resting calcium signal, replicate 1 = 1.79e7; resting calcium signal, replicate 2 = 2.78e7.
